Assay results published in paper PMC3120833.
Results are given in words; binding and its absence hold for the method and conditions named. In cells and extracts the contact can be indirect. Some entries that bind do so weakly or less than the wild type.

By UniProt entry, the sequences of proteins in these tests, tags left out.
UniProt Q93009: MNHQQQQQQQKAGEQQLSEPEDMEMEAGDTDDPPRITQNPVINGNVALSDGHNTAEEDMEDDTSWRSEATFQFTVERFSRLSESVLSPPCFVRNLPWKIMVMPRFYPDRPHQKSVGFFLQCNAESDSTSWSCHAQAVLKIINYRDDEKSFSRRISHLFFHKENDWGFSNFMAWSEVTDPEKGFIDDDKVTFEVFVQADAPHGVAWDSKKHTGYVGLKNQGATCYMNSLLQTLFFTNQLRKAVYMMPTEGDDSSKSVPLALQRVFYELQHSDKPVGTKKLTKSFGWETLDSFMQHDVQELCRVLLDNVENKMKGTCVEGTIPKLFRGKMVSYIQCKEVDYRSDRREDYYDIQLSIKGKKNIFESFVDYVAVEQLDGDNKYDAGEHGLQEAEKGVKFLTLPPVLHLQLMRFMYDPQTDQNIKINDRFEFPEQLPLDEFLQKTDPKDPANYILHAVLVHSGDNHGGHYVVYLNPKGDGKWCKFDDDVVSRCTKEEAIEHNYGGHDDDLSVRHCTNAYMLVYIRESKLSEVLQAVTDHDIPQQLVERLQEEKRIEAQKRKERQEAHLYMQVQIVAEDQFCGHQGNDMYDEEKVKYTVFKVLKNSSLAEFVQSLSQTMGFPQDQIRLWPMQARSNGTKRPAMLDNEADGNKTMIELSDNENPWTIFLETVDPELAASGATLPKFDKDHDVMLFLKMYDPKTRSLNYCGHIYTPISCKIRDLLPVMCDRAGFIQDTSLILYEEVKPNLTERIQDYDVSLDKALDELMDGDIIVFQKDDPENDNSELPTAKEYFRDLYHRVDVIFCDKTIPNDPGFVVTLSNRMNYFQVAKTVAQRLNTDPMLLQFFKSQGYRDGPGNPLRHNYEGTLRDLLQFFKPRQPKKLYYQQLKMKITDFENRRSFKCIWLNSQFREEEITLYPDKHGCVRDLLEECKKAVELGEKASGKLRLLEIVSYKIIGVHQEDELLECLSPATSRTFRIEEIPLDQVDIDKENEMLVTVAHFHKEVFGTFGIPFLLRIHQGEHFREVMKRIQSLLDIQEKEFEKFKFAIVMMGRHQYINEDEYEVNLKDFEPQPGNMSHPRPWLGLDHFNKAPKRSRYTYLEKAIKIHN

Molecular target: T1, ING1, endogenous in HEK293 cells (human (endogenous in HEK293)) (UniProt Q9UK53)
T1 sequence: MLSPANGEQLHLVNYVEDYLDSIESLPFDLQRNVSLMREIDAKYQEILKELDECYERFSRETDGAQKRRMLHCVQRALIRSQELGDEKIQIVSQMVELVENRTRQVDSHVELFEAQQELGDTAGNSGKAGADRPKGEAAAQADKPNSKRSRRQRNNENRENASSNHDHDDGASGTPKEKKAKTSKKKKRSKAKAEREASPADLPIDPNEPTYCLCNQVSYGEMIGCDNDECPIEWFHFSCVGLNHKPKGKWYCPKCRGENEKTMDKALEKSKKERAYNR
Assay: co-IP; HEK293 cells harvested and immunoprecipitated with anti-ING1 or anti-HAUSP, controls mouse anti-GST and rabbit pre-immune serum; blotted for HAUSP (USP7) or ING1

## herpesvirus-associated ubiquitin-specific protease (HAUSP), endogenous in HEK293 cells (from UniProt Q93009 1-1102) (enzyme)
  binding: binds
